Laboratory results reported in paper doi:10.1101/2022.10.13.512146.

Molecular target: T1, APEX2-IκBα fusion, P25963
T1 chain: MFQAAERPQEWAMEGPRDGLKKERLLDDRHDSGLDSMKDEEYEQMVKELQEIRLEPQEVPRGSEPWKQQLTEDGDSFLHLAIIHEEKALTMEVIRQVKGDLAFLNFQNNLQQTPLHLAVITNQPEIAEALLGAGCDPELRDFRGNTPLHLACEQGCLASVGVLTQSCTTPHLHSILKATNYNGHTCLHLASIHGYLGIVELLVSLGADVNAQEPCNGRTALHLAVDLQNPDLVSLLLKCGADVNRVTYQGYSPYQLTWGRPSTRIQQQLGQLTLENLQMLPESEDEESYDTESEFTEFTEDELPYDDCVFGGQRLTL
Experiment: proximity labelling
Conditions: remark: other sources report otherwise

B1: Rel C, Q04864 1-619 (protein)
chain: MASGAYNPYIEIIEQPRQRGMRFRYKCEGRSAGSIPGEHSTDNNRTYPSIQIMNYYGKGKVRITLVTKNDPYKPHPHDLVGKDCRDGYYEAEFGQERRPLFFQNLGIRCVKKKEVKEAIITRIKAGINPFNVPEKQLNDIEDCDLNVVRLCFQVFLPDEHGNLTTALPPVVSNPIYDNRAPNTAELRICRVNKNCGSVRGGDEIFLLCDKVQKDDIEVRFVLNDWEAKGIFSQADVHRQVAIVFKTPPYCKAITEPVTVKMQLRRPSDQEVSESMDFRYLPDEKDTYGNKAKKQKTTLLFQKLCQDHVETGFRHVDQDGLELLTSGDPPTLASQSAGITVNFPERPRPGLLGSIGEGRYFKKEPNLFSHDAVVREMPTGVSSQAESYYPSPGPISSGLSHHASMAPLPSSSWSSVAHPTPRSGNTNPLSSFSTRTLPSNSQGIPPFLRIPVGNDLNASNACIYNNADDIVGMEASSMPSADLYGISDPNMLSNCSVNMMTTSSDSMGETDNPRLLSMNLENPSCNSVLDPRDLRQLHQMSSSSMSAGANSNTTVFVSQSDAFEGSDFSCADNSMINESGPSNSTNPNSHGFVQDSQYSGIGSMQNEQLSDSFPYEFFQV
B1 was tested, and the binding was “binds”.

These are yes or no findings as the source states them, for the method shown. In cells and extracts the contact can be indirect. These calls come from enrichment with a bait or labelling near it, and not all partners need be listed. Tags and fused reporters may be left off the sequences shown.
